In assay [1] the target is biotinylated β-galactosidase (Pierce Chemical, 29939) [β-galactosidase: P00722]. The experiment in a line: avidin immobilized in hydrogel spots, treated with biotinylated β-galactosidase (legend of FIG. 10).
For assay [2] the target is unchanged. The experiment in a line: avidin immobilized in hydrogel spots, treated with 0.2 U/ml biotinylated β-galactosidase; bound enzyme detected by hydrolysis of fluorescent substrate C12FDG.

Amino acid sequences for entries named in this document (tags omitted). Residues count along the entry.
UniProt P02701, residues 25-152: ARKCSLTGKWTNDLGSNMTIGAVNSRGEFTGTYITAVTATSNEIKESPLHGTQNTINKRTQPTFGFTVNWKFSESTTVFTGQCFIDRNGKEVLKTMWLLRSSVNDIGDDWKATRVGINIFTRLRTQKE

These are yes or no findings as the source states them, for the method shown. Some entries that bind do so weakly or less than the wild type.

As to “avidin (NeutrAvidin, Pierce Chemical Company, catalog number 31000) (from UniProt P02701 25-152)”, the binding entry in assay [1] and in assay [2] was “binds” each time.

These data come from patent US20030134294A1.
